# Measurements: PubChem BioAssay AID1508600 (Functional Genomics Laboratory (NCATS/FGL), 2020)
# The whole screen tested about 53,000 sequences, of which about 3,700 (7%) were called active.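 How the source made its calls: active means gene knockdowns whose robust z-score for IL-1 alpha signal is at least 2 or at most -2, so actives lie on both sides; inactive means the rest.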 The list shows a part of the results.
# Assay: Components of the Cytosolic LPS Sensing Pathway: Gene Identification via Genome-wide siRNA Screen;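 further: robust z of the log signal after scaling to non-targeting control siRNA wells of the plate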
# Settings: RAW264.7 macrophages, IL-1a HTRF, actives lie on both sides, screened at 100 nM (by protocol), cells primed 5 h with Pam3CSK4 first
# Outline: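 Knockdown: 100 nM siRNA, 48h, RAW264.7. Stimulation: Pam3CSK4 5 h, then LipidA via TransIT-TKO 24 h. Output: supernatant IL-1a HTRF, negative-control-normalized, log robust z-score; viability by CellTiter-Glo.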
row,Sequence,z-score
1,GCUCUUUCCCGACAUUCCCTT against Nans,inactive: -1.26
2,GGGAAAUUUUCUGACAAGUTT against A730020M07Rik,inactive: -1.29
3,GGAGAUUGUGCCAUCCAUGTT against Ccnd1,inactive: -0.754
4,GCUAGACGGGUGUUUAAGATT against Tiam2,inactive: -1.44
5,GGGCAAGUGGAAGAAGAGATT against Klhdc8a,inactive: -0.759
6,GGCUAAGGGUGGGAAAGAATT against Csl,inactive: -1.65
7,UCCCUAACGGCCCUUUUUATT against H4c14,inactive: -0.729
8,GGACUACAGAACAAAAUGUTT against Zfp385b,inactive: 0.229
9,GGAAACGAUAGCCAAUAUUTT against Scp2d1,inactive: -1.08
10,GCUUUGAGCAGCUAGGUUATT against Tpcn2,active: 3.78
11,GGUGAUGCAGAAAGGUGGATT against H2-M10.5,inactive: 1.01
12,GGAAGGUCUAGUUGAUUGUTT against Klrb1a,inactive: -0.794
13,CCUAUAAUGGAGAUGAUACTT against Spty2d1,inactive: -0.46
14,GGACAACAUUAUAGGAAAGTT against Neu3,active: 2.36
15,CCAAGAUCUCAGUUGUCUCTT against Mtif2,inactive: 0.157
16,GGAGCUCAGCAUUAUGUAGTT against Adpgk,inactive: -0.138
17,GGUGUUUGCCGAGUGACUGTT against Wdr25,inactive: -0.133
18,GGAAGUUAGCCCUAAAGUUTT against Uchl1,inactive: -0.0263
19,CCAUCCAGCUUUCAUUAAATT against Nckap1l,inactive: 0.508
20,GGACACCUACUUGGUAUUGTT against Epor,inactive: -0.632
21,CCUUUCAGGUGCAUAUCCATT against Plppr1,inactive: 0.547
22,GGACUAUGCUGUCCAGAUCTT against Ntn1,inactive: -0.432

row,Sequence,z-score
1,AGGGCGAUGCCAUUUCUUATT against Cacfd1,inactive: 0.503
2,GGUUGACAAUUUUCUCAAGTT against Prl,inactive: 1.44
3,GGAGUGGCUAUGUUUUCGATT against Hrg,inactive: 0.658
4,GGUCUUCGGUUUUUUAUACTT against Olfr908,inactive: -0.337
5,GGGACAAAACCUUGAUGGUTT against Vmn1r200,inactive: -0.254
6,GCAACAAGACUCGCAUCAUTT against Cbln4,inactive: 0.866
7,CCUUGAGCAUAUCUUCUGUTT against Olfr420,inactive: 0.862
8,GGAAAGGACUAAGUCAGGATT against Mdk,inactive: -0.136
9,GGAGGAGACAGGCUAUUACTT against Usp25,inactive: 0.129
10,GCCCAAACUCAUUGAGUUUTT against Cab39l,inactive: 1.78
11,GCGGCAGUAGCCAGAAAAATT against Rhox7a,inactive: -1.37
12,GGAGAGGAAUGGUGUGUUATT against Cfap36,inactive: -1.44
13,GGAGACUACAAAGGAGAGCTT against Igfbp6,inactive: -0.589
14,GCUCGGUCUUCAUCCCAAATT against BC016548,inactive: 0.535
15,GGCUUCUGUGGCAGAUAAGTT against Pspn,inactive: -0.166
16,CGGGAAAUCAUAAAACAGGTT against Chd4,inactive: 0.0611
17,GGAGCUGAGGGAACCUUGUTT against Slc35c1,active: -2.67
18,GGCUACAUAGGAUCCACAATT against Prm2,inactive: 0.754
19,GGGAGAAAUUUGAUAGUUUTT against Pcmtd2,inactive: 0.955
20,CGAUAUCACUCAGGAGUGUTT against Ilkap,inactive: -0.594
21,GGAAAUGAACAUGUGACUATT against Taf1d,inactive: 0.341
22,GCACUACACUGAUUUGCUATT against Actr1b,inactive: -0.744

# Another view of part of the listing above:
row	Sequence	z-score
18	GGCUACAUAGGAUCCACAATT against Prm2	inactive: 0.754
19	GGGAGAAAUUUGAUAGUUUTT against Pcmtd2	inactive: 0.955
20	CGAUAUCACUCAGGAGUGUTT against Ilkap	inactive: -0.594
21	GGAAAUGAACAUGUGACUATT against Taf1d	inactive: 0.341

# As entered above:
# Value for GGAAGGUCUAGUUGAUUGUTT against Klrb1a under z-score: inactive: -0.794
# Value for GGACACCUACUUGGUAUUGTT against Epor under z-score: inactive: -0.632

# The listing continues.

row,Sequence,z-score
1,GGCAAUGGACCUUUGAUGCTT against Tmem79,inactive: -0.0601
2,GCAUCACUGGAUUGUGGAUTT against Tm9sf2,inactive: 0.188
3,UCAACAGGGCUGAUAUCCCTT against Acsl5,inactive: -1.61
4,GCCCAAGGUAGAUUCCAGCTT against Atg2b,inactive: -0.0844
5,GCUGGACGGUAGAAGAAUCTT against Tra2a,inactive: 0.245
6,UAGAAGAUGCAACCUUGCUTT against Adam34,inactive: 0.188
7,GGUACUGAUCAGCAAGACGTT against Lca5l,inactive: 0.821
8,GGUUCUUUAAUAGAACAUGTT against Tyrp1,inactive: 1.08
9,CGAGUCUAUAAACCUCAAATT against Lce3f,inactive: 1.51
10,GCGUGGAAAUCAACUUACATT against Ccin,inactive: 1.41
11,GCCCAAGUCCAAAGUGUUGTT against Fbll1,inactive: 1.12
12,GCAUCGUUUUGAUCGAAUATT against Tdp2,inactive: 1.15
13,GCAAGAGGGUUACAGUUAGTT against 2610001J05Rik,inactive: -0.0805
14,GGAAUUCCCAUUGGAAGAATT against Vmn1r232,inactive: 0.0956
15,GGGUGAAUUUCCACCUUAUTT against Sgce,inactive: -0.521
16,GGAGUACGAAUUCCUCACUTT against Arhgdib,inactive: -0.0475
17,CCCGCUGUUUACACUAACGTT against Klk9,inactive: -0.738
18,GCUGAAAAGUAGAGUUAAATT against Pcm1,inactive: 0.883
19,GGCCUUGAAAUCGUUUUUUTT against Tceal8,inactive: 0.534
20,GGUGAUGAUGAUGUCUUUGTT against B3gnt7,inactive: 1.93
21,GGAAUGUGUGAGUGAAUUUTT against Nfyb,inactive: -0.452
22,GGGUUUACAAACUACACAUTT against Six3os1,inactive: 0.957

row,Sequence,z-score
1,GGGCAAGUACCCAAUAAGATT against Cyp27a1,inactive: 0.794
2,GGGCAAGUACAAGCGUAACTT against Jph4,inactive: -1.5
3,GGGCUAAGGCGAAAAGACUTT against Msx2,active: 3.24
4,CGAUCAUUAUGAACAGAUUTT against Olfr48,inactive: -0.174
5,GCCUGUAAGAUCACUAAAATT against Atxn7l1,inactive: -0.0813
6,GGCUUCAAUGCCAAUCGGATT against Kcnh3,inactive: 0.00875
7,GGGCAUUGGUUCUCAGUGUTT against Gpr157,inactive: -1.44
8,CGAUUUCGCCAUCUUUGGATT against Tpk1,inactive: 1.31
9,CCACUGUCCUGAUUUCUUATT against Olfr1037,inactive: -0.476
10,GCUAUAGCCCUAGAGCUAUTT against Psmb4,inactive: -0.894
11,AUGUCAGCGGCCCUAGAUGTT against Adam34l,active: -2.09
12,CGACAAGUACGAGAACGGUTT against Tcf21,inactive: 1.89
13,GGAUGUCCAUCAUAUUAAGTT against Tex19.2,inactive: -1.24
14,GCAAUGAGGAGUAUAUGUATT against Rfx5,active: 2.89
15,CCGGCUUUAUAAUUAGGAUTT against Olfr948,inactive: -0.0601
16,GGACUAGCACUUUAUGUUUTT against Strm,inactive: 0.531
17,CCUAUGAACUCUUAACCAATT against Pgd,inactive: -0.192
18,GGCAAACGAAACACUAGCATT against Cacna1d,active: 4.94
19,GCUCCUUGGGCGAUUUCAGTT against Aggf1,inactive: 0.265
20,GGAUUUUCUACUUAGCAACTT against 9630013D21Rik,inactive: 0.808
21,GCACGGAAGACUUACGAACTT against Cstf3,inactive: 0.439
22,GGAAGGAGAAGAAAACAUATT against Gtf3c6,active: -2.13

row,Sequence,z-score
1,GGAACACCUCUGGAAAUCUTT against Pex12,inactive: -0.801
2,CUAGUUGACUUCUGGUACUTT against Olfr915,inactive: 0.889
3,CCUGGUGCGUUCAUUCCUGTT against Lpcat1,inactive: -0.564
4,GGGACUUUUUUAGGUGAAUTT against Npl,inactive: -0.591
5,GGCUACCCAUGCUACCUACTT against Banf2,inactive: -0.0574
6,GGUUAAAAUUUGGUUUCAGTT against Cdx2,inactive: 1.49
7,UUUCAACUGAAUUGCACUUTT against 4930471G03Rik,inactive: 1.19
8,GCCACUAAGAUUGUCAUCGTT against Tacr3,inactive: -1.09
9,GCUACUAAUUGAUUAGUUGTT against Tmprss12,inactive: 0.936
10,CCGUGGUACCAUCAAUGACTT against Aarsd1,inactive: 0.142
11,GCUCAAUGACAGACUAGCCTT against Dusp3,inactive: -0.72
12,GCACAGACAUCUUUUGCCATT against Man2a2,inactive: -1
13,GGAUGUGUACAAUCGUACCTT against Gltpd2,inactive: 1.23
14,CGGGAAAGUACUGUAGAAATT against Cdc42se1,inactive: 0.197
15,GCACGAACAAAAUGAAUACTT against Insl6,inactive: 1.18
16,GGAGUACUUCCCUGUGAUCTT against Magea6,inactive: 0.454
17,GGUGCACAGAUGUCUUACCTT against Sec24d,inactive: -0.945
18,GGUAGUUAAUCAGUGUAAATT against Rps6kb1,inactive: 1.1
19,CGGACACUUUCACCUUCAATT against C77080,inactive: -1.25
